# PubChem BioAssay AID540276 (National Center for Advancing Translational Sciences (NCATS), 2011)
# In all, about 300,000 compounds went through this assay and about 5,400 (1.8%) were called active. This list was built around the results that the source calls inconclusive (neither active nor inactive); the mix of calls is not that of the screen. Calls come from the whole dose curve; tested in HEK293 cells. Potencies of inconclusive entries are doubtful fits and often do not repeat.
# Assay: qHTS for inhibitors of binding or entry into cells for Marburg Virus
# Conditions: Marburg virus pseudotyped entry inhibition, cell reporter; activity change, negative = inhibition: at 37.8 µM (top of the series) unless noted
# % is set by controls: 0 for no effect and ±100 for the full control effect; potency is the fitted concentration of half-maximal effect.
Compound,Potency,"activity change, negative = inhibition"
O=C(NCCCN1CCc2ccccc2C1)C1CCN(c2nnc(-n3cccc3)s2)CC1,active: 14.6 µM,
O=c1c2sccc2n(Cc2cc(=O)n3ccccc3n2)c(=O)n1-c1cc(F)ccc1F,,inactive: -16.1% [at 46.1 µM]
c1coc(CN=C2NC(=NCc3ccco3)c3ccccc32)c1,"inconclusive: 16.4 µM [inhibitor, single point]",
COc1ccccc1C(=O)Nc1ccc2c(c1)CCCN2C(=O)c1ccccc1,"inconclusive: 8.91 µM [inhibitor, single point]",
Cc1ccsc1C(=O)NNC(=O)COc1ccc(Br)cc1,,inactive: 1.92%
Cc1ccccc1CNC(=O)c1nn(-c2ccccc2F)nc1CO,,inactive: 17% [at 46.1 µM]
CC(CN1CCOCC1)OC(=O)c1ccccc1 (stereo unspecified),"inconclusive: 1.26 µM [inhibitor, single point]",
Cc1cccc(C(=O)NC2CC3CCCC(C2)N3C(=O)Nc2ccccc2)c1 (stereo unspecified),"inconclusive: 2.24 µM [activator, partial curve, poor fit]",
C[C@@H]1C=CCC(=O)N[C@@H](c2ccc3ccccc3c2)[C@H](C)C=CCC(=O)N[C@@H]1c1ccc2ccccc2c1,active: 2.66 µM,
O=S(=O)(NC1CCCCC1)c1cccc2nsnc12,"inconclusive: 0.631 µM [activator, full curve, poor fit]",
Cc1c(-c2nc(-c3cccnc3)no2)cccc1[N+](=O)[O-],"inconclusive: 12.6 µM [activator, single point]",
O=P(COCCOCCOCP(=O)(c1ccccc1)c1ccccc1)(c1ccccc1)c1ccccc1,"inconclusive: 3.16 µM [inhibitor, partial curve, poor fit]",
COc1cccc(Cn2c(N)c(C#N)c3nc4ccccc4nc32)c1OC,"inconclusive: 1.3 µM [inhibitor, full curve]",
O=C(CSCC(=O)NC1CCCC1)Nc1ccccc1,"inconclusive: 15.8 µM [inhibitor, single point]",
N#Cc1c(-c2ccccc2)cc(C2CC2)nc1N,"inconclusive: 1.16 µM [activator, single point]",
COc1ccc(S(=O)(=O)c2nnn(-c3cccc(OC)c3)c2N)cc1,"inconclusive: 20 µM [inhibitor, single point]",
O=C(COc1ccc2ccccc2c1Br)Nc1ncn[nH]1,"inconclusive: 29.1 µM [inhibitor, single point]",
CCc1cc(-c2n[nH]c(C)c2-c2nc(C)cs2)c(O)cc1OC,"inconclusive: 35.5 µM [inhibitor, single point]",
CC(C)NC(=O)NC(=O)COC(=O)c1ccccc1O,,inactive: -2.69% [at 46.1 µM]
COc1cccc(NP(=O)(Oc2ccc(Cl)cc2)Oc2ccc(Cl)cc2)c1,"inconclusive: 29.1 µM [inhibitor, single point]",
Cc1csc(NC(=O)c2nc3nc(C)cc(C)n3n2)n1,"inconclusive: 11.2 µM [inhibitor, partial curve, poor fit]",
Cc1cc2nc(-c3ccccc3O)[nH]c2cc1C,"inconclusive: 1.58 µM [activator, partial curve, poor fit]",
CCC(C)NCCOc1ccc(C(C)(C)c2ccccc2)cc1 (stereo unspecified),"inconclusive: 35.5 µM [inhibitor, single point]",
O=c1c2c(nc3cc(-c4ccccc4Cl)[nH]n13)CCS2,"inconclusive: 31.6 µM [activator, partial curve, poor fit]",

# No new results follow: entries from further up.
Compound,Potency,"activity change, negative = inhibition"
Cc1cccc(C(=O)NC2CC3CCCC(C2)N3C(=O)Nc2ccccc2)c1 (stereo unspecified),"inconclusive: 2.24 µM [activator, partial curve, poor fit]",
C[C@@H]1C=CCC(=O)N[C@@H](c2ccc3ccccc3c2)[C@H](C)C=CCC(=O)N[C@@H]1c1ccc2ccccc2c1,active: 2.66 µM,
O=S(=O)(NC1CCCCC1)c1cccc2nsnc12,"inconclusive: 0.631 µM [activator, full curve, poor fit]",
Cc1c(-c2nc(-c3cccnc3)no2)cccc1[N+](=O)[O-],"inconclusive: 12.6 µM [activator, single point]",
O=P(COCCOCCOCP(=O)(c1ccccc1)c1ccccc1)(c1ccccc1)c1ccccc1,"inconclusive: 3.16 µM [inhibitor, partial curve, poor fit]",
COc1cccc(Cn2c(N)c(C#N)c3nc4ccccc4nc32)c1OC,"inconclusive: 1.3 µM [inhibitor, full curve]",
O=C(CSCC(=O)NC1CCCC1)Nc1ccccc1,"inconclusive: 15.8 µM [inhibitor, single point]",
N#Cc1c(-c2ccccc2)cc(C2CC2)nc1N,"inconclusive: 1.16 µM [activator, single point]",
COc1ccc(S(=O)(=O)c2nnn(-c3cccc(OC)c3)c2N)cc1,"inconclusive: 20 µM [inhibitor, single point]",
O=C(COc1ccc2ccccc2c1Br)Nc1ncn[nH]1,"inconclusive: 29.1 µM [inhibitor, single point]",
CCc1cc(-c2n[nH]c(C)c2-c2nc(C)cs2)c(O)cc1OC,"inconclusive: 35.5 µM [inhibitor, single point]",
CC(C)NC(=O)NC(=O)COC(=O)c1ccccc1O,,inactive: -2.69% [at 46.1 µM]
COc1cccc(NP(=O)(Oc2ccc(Cl)cc2)Oc2ccc(Cl)cc2)c1,"inconclusive: 29.1 µM [inhibitor, single point]",
Cc1csc(NC(=O)c2nc3nc(C)cc(C)n3n2)n1,"inconclusive: 11.2 µM [inhibitor, partial curve, poor fit]",
Cc1cc2nc(-c3ccccc3O)[nH]c2cc1C,"inconclusive: 1.58 µM [activator, partial curve, poor fit]",
CCC(C)NCCOc1ccc(C(C)(C)c2ccccc2)cc1 (stereo unspecified),"inconclusive: 35.5 µM [inhibitor, single point]",
O=c1c2c(nc3cc(-c4ccccc4Cl)[nH]n13)CCS2,"inconclusive: 31.6 µM [activator, partial curve, poor fit]",

# (more compounds)

Compound,Potency,"activity change, negative = inhibition"
Cc1ccc2[nH]c3c(Cl)ncnc3c2c1,,inactive: -20.3% [at 46.1 µM]
CCCCNS(=O)(=O)c1ccc2nc(SCC(=O)c3ccccc3OC)[nH]c2c1,"inconclusive: 25.9 µM [inhibitor, single point]",
CC1=CC2=NC(=O)/C(=C\c3ccc(OC(=O)c4ccco4)cc3)C(=N)N2O1,,inactive: 7.47% [at 46.1 µM]
CCOc1ccc(C(=O)Nc2ccc(N3CCN(C(=O)c4ccco4)CC3)cc2)cc1Br,"inconclusive: 17.8 µM [activator, partial curve, poor fit]",
COc1ccccc1NC(=O)Nc1ccc2c(c1)nc(C)n2C,,inactive: -25% [at 46.1 µM]
Cc1ccc(NC(=O)CN2CCN(CCN=CC3=C(O)CC(C)(C)CC3=O)CC2)cc1,,inactive: 9.74% [at 46.1 µM]
Cc1ccc(-c2cc[n+](Cc3ccccc3)cc2)cc1,"inconclusive: 28.2 µM [inhibitor, partial curve, poor fit]",
CCC(=O)N/C(N)=N/c1nc(C)c2cc(C)c(C)cc2n1,,inactive: -0.194% [at 46.1 µM]
Cc1c(Cc2ccccc2)c(=O)oc2cc(OCC(=O)c3ccccc3)ccc12,"inconclusive: 1 µM [inhibitor, full curve]",
COc1ccc(S(=O)(=O)N(C)c2ccc(C(=O)N3CCN(c4ccccc4)CC3)cc2)cc1OC,,inactive: 0.919%
CCn1cc(Cl)c(C(=O)Nc2cc(C(=O)OC)cc(C(=O)OC)c2)n1,"inconclusive: 1 µM [inhibitor, single point]",
O=[N+]([O-])c1ccc(Oc2ccc(S(=O)(=O)N3CCCCC3)cc2)cc1,"inconclusive: 35.5 µM [inhibitor, single point]",
O=C(Nc1nccs1)NC1CCCCC1,,inactive: 13.2%
COC(=O)C1=C(C)N=C2SCCC(=O)N2C1c1ccc(OCc2ccccc2)c(OC)c1 (stereo unspecified),"inconclusive: 11.2 µM [inhibitor, partial curve, poor fit]",
Cc1ccc(-c2c(C(=O)N3CCN(c4cccc(C)c4)C(C)C3)oc(=O)c3ccccc23)cc1 (stereo unspecified),"inconclusive: 3.55 µM [inhibitor, partial curve, poor fit]",
Cc1cccc(C(=O)NCC(c2ccco2)N(C)C)c1 (stereo unspecified),"inconclusive: 35.5 µM [activator, single point]",
Cc1ccc(NC(=O)Cn2ccc(=O)[nH]c2=O)cc1,,inactive: 18.4% [at 46.1 µM]
COc1ccc2c(C)c(CCC(=O)NCc3ccc(C)cc3)c(=O)oc2c1,,inactive: 4.5% [at 46.1 µM]
COC(=O)C1=C(C)N(Cc2ccccc2)C(=NCCCCO)NC1c1cccc(F)c1 (stereo unspecified),"inconclusive: 2.66 µM [activator, partial curve]",
CC(C)Cc1nc2oc3c(NCC4CCCO4)ncnc3c2c2c1CCC2 (stereo unspecified),"inconclusive: 16.4 µM [inhibitor, single point]",
CC(C)(C)C(=O)Cn1c(=N)n(Cc2ccccc2Cl)c2ccccc21,,inactive: -3.54%
Cc1ccccc1-n1c(-c2csc(C)c2C)n[nH]c1=S,"inconclusive: 0.282 µM [activator, partial curve, poor fit]",
CC(=O)Nc1ccc(SCc2ncc(-c3ccccc3)o2)cc1,"inconclusive: 35.5 µM [inhibitor, single point]",
Cc1nc2ccccc2c(N)c1C(=O)/C=C/c1ccccc1,"inconclusive: 8.91 µM [inhibitor, partial curve, poor fit]",

Compound,Potency,"activity change, negative = inhibition"
O=C(N/N=C/C=C/c1ccco1)c1cccnc1,,inactive: 21.6%
Cc1ccc(-c2cc(-c3ccccc3C)[nH]n2)c(O)c1,"inconclusive: 0.562 µM [activator, single point]",
CCn1c2ccccc2c2cc(NC(=O)C(C)Oc3ccc(OC)cc3)ccc21 (stereo unspecified),"inconclusive: 7.08 µM [inhibitor, partial curve]",
O=C(NC1CC1)C1CCN(C2CCN(C(=O)c3c(F)cccc3Cl)CC2)CC1,,inactive: 4.34% [at 46.1 µM]
Cc1ccc(N2C(=O)NC(=O)/C(=C/c3ccoc3)C2=O)cc1,,inactive: -20.7% [at 46.1 µM]
COCCn1c(SCC(=O)Nc2ccc(S(=O)(=O)N3CCOCC3)cc2)nc2ccccc21,inactive,
Cc1ccc(CNC(=O)/C=C/c2ccc(S(=O)(=O)N3CCOCC3)cc2)cc1,"inconclusive: 1.26 µM [activator, single point]",
O=C(N/N=C/c1c[nH]c2ccccc12)C1COc2ccccc2O1 (stereo unspecified),"inconclusive: 2.24 µM [inhibitor, partial curve, poor fit]",
COc1ccc(CC(=O)O/N=C(\N)c2ccccn2)cc1OC,"inconclusive: 15.8 µM [activator, single point]",
Cc1cc(C)n2nc(CNC(=O)c3ccccc3Cl)nc2n1,,inactive: -7.61% [at 46.1 µM]
Cc1cc(=O)[nH]c2ccc(S(=O)(=O)N3CCOCC3)cc12,"inconclusive: 3.55 µM [inhibitor, single point]",
O=C(CCCSc1nc2ccccc2[nH]1)N1CCN(c2ccccc2)CC1,"inconclusive: 25.9 µM [inhibitor, single point]",
CCCn1nc(C(=O)N2CCc3ccccc3C2)c2ccccc2c1=O,"inconclusive: 35.5 µM [inhibitor, single point]",
CC(C)C1C(=O)N(Cc2cn(CC3CCCCC3)nn2)CCS(=O)(=O)N1Cc1ccc(-c2ccc(Cl)nc2)cc1 (stereo unspecified),"inconclusive: 12.5 µM [inhibitor, partial curve, poor fit]",
FC(F)(F)c1cccc(Cn2c3[n+](c4ccc(C(F)(F)F)cc42)CCCCC3)c1,"inconclusive: 35.5 µM [inhibitor, single point]",
CSc1nsc(SC)c1C(=O)NCCNS(=O)(=O)c1ccc(C)cc1,inactive,
O=C(c1ccccc1F)N1CCCC(C(=O)N2CCN(c3ccccc3)CC2)C1 (stereo unspecified),,inactive: -0.294% [at 46.1 µM]
COc1ccc(NC(C)=O)cc1NC(=O)CSc1nnc(-c2ccccc2)n1N,,inactive: 23.5%
O=C(NCc1ccccn1)[C@@H]1C[C@H]1[C@@H](NP(=O)(c1ccccc1)c1ccccc1)c1ccccc1,,inactive: -16.4%
CCOC(=O)C(=O)Nc1ccccc1C(=O)OCC,"inconclusive: 31.6 µM [activator, single point]",
O=C(CCC(=O)Nc1ccccc1)NCCO,,inactive: 8.11%
NC(=O)NC(=O)CN1C(=O)NC(c2ccccc2)(c2ccccc2)C1=O,"inconclusive: 12.6 µM [activator, partial curve, poor fit]",
O=[N+]([O-])c1ccc(NS(=O)(=O)c2ccccc2)c(Cl)c1,active: 11.2 µM,
